Measured values reported in patent US8063014B2, “Self-assembly of peptide-amphiphile nanofibers under physiological conditions” (Northwestern University, priority 2002, dated 2011).
Some of these results come from one statement about several compounds together.

Test: Solubility, pH-dependent precipitation and gelation in water
Assay type: physicochemical
Conditions: neutral pH
Method: After synthesis (see, example 10), the PA of FIG. 1 (characterized by ^1H NMR and matrix-assisted laser desorption/ionization time-of-flight mass spectrometry (MALDI-TOF MS): matrix ion [M−H]^−1=1333) was treated with dithiothreitol (DTT) at a pH of 8 to reduce all cysteine residues to free thiols. […] However, upon acidification of the solution below pH 4 the material rapidly becomes insoluble. Solutions more concentrated than 2.5 mg/ml form birefringent gels in water that are self-supporting upon inversion of the container. […] Negatives were digitized in the Umax PowerLook scanner with resolution 1200 dpi. The average thickness of the PA fibers was determined by two different procedures. First the Fourier transform of the images and following measurements of the distances between the peaks were performed in the NIH Image […] program. The second approach applied was averaging technique based on the cross-correlation method, widely used in single particle reconstruction using the EMAN […] program. For each data set 1200-1300 individual boxes were selected.
Several PAs with basic amino acids that can self-assemble at alkaline pH and also mixed systems, in which oppositely charged PAs self-assemble at neutral pH, were prepared. […]

| Substance | concentration at which the PA dissolves in water [µg/mL] |
| --- | --- |
| 24 (AAAAGGGKYIGSR; N-terminal C16 alkyl; C-terminal amide) [compound 24] | ≥ 10000 |
| 25 (AAAAGGGEIKVAV; N-terminal C16 alkyl) [compound 25] | ≥ 10000 |
